Test results taken from patent US11254689B2, “Compounds” (priority 2017, dated 2022).
Read-outs that look alike come from different tables or passages of the source. Some results were stated once for a whole list of compounds, not compound by compound.

System: M. tuberculosis H37Rv-GFP
Type: cell-based, Mycobacterium tuberculosis
Settings: read-out: average EC50_H37Rv
[1] = potentiation of ethionamide activity, ETH 0.1 μg/ml, […], 5 days at 37° C., […]

| SMILES | EC50 [1] [µM] | EC50 [µM] |
| --- | --- | --- |
| CC(C)COC1=NOC2(CCN(C(=O)CCC(F)(F)F)CC2)C1 [Example 3, 4,4,4-trifluoro-1-(3-isobutoxy-1-oxa-2,8-diazaspiro[4.5]dec-2-en-8-yl)butan-1-one] | < 0.75 |  |
| CCCCCCOC1=NOC2(CCN(C(=O)CCC(F)(F)F)CC2)C1 [Example 4, 4,4,4-trifluoro-1-(3-hexyloxy-1-oxa-2,8-diazaspiro[4.5]dec-2-en-8-yl)butan-1-one] |  | < 0.75 |
| CC1=NOC2(CCN(C(=O)CCC(F)(F)F)CC2)C1 [Example 9, 4,4,4-trifluoro-1-(3-methyl-1-oxa-2,8-diazaspiro[4.5]dec-2-en-8-yl)butan-1-one] | < 0.75 |  |
| O=C(CCC(F)(F)F)N1CCC2(CC1)CC(F)=NO2 [Example 12, 4,4,4-trifluoro-1-(3-fluoro-1-oxa-2,8-diazaspiro[4.5]dec-2-en-8-yl)butan-1-one] | < 0.75 |  |
